The values below come from the supplement of paper PMC11732987, “Enantioselective OTUD7B fragment discovery through chemoproteomics screening and high-throughput optimisation” (Communications Chemistry, 2025).

By UniProt entry, the sequences of proteins in these tests, tags left out. Where a name states a change or a piece, a line headed by the entry shows the natural chain unless it says otherwise.
UniProt Q9Y6R0: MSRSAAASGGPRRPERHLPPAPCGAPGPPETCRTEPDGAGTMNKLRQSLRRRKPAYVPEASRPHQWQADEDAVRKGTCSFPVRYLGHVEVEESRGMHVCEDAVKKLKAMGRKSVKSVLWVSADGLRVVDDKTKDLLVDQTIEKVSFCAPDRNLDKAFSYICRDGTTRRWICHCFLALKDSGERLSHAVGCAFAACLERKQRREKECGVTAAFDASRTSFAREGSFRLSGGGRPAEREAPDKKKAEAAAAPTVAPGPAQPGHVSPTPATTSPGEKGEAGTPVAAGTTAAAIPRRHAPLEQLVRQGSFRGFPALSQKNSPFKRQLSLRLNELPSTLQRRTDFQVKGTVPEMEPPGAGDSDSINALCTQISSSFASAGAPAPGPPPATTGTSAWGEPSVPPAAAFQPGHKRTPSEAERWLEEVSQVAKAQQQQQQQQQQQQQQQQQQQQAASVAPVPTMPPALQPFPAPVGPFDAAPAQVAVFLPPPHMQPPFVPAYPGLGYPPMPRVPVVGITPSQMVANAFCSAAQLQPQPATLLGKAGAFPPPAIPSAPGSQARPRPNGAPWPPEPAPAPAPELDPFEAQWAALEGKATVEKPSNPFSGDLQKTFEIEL
UniProt Q96CB9: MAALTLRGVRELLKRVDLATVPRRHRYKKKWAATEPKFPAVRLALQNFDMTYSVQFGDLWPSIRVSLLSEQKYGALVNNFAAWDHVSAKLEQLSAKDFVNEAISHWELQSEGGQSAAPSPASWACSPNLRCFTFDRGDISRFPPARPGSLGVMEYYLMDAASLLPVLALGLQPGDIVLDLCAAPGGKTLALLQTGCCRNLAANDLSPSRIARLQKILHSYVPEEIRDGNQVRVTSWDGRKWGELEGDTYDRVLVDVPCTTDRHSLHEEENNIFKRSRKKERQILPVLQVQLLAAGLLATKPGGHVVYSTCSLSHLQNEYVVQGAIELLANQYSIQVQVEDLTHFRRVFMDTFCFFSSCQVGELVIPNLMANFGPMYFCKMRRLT
UniProt Q12769: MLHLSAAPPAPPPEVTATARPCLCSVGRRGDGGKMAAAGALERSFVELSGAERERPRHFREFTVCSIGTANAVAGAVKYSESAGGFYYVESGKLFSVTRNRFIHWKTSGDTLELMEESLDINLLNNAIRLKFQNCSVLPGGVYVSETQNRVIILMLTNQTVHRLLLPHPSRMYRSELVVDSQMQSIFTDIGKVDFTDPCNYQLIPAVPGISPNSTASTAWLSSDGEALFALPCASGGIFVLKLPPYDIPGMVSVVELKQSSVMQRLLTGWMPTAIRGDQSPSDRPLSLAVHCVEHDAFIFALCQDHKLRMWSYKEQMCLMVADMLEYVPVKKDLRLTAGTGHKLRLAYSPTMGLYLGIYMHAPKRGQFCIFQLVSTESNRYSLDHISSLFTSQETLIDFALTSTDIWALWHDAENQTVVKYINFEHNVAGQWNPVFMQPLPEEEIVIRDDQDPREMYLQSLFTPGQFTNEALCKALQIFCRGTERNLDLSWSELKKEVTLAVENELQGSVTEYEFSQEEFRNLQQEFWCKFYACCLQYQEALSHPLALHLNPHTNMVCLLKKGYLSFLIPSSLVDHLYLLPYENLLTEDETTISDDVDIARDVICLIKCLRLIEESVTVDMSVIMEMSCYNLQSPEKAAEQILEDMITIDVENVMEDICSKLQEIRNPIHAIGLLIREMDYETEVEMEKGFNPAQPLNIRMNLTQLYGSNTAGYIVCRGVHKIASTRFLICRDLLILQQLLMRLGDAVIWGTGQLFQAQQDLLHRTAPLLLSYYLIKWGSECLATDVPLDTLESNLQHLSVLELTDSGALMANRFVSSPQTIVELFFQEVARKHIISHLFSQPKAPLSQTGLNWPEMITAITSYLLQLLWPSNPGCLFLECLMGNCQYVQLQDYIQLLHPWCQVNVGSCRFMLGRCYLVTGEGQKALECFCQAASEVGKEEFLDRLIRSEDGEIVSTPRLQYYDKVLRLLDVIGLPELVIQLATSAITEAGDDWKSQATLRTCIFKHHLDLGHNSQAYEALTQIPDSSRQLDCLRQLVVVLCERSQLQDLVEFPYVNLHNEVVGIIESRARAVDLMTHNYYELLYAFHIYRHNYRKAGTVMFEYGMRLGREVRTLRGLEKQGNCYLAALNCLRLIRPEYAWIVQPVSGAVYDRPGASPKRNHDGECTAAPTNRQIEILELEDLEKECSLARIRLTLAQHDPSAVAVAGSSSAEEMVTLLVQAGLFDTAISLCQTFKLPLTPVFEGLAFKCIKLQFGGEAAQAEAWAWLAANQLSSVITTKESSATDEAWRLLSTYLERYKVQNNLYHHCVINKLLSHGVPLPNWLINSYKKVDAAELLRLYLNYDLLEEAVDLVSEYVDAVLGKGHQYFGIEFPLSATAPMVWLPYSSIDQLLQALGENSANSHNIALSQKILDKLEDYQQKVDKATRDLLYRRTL
UniProt Q96L73: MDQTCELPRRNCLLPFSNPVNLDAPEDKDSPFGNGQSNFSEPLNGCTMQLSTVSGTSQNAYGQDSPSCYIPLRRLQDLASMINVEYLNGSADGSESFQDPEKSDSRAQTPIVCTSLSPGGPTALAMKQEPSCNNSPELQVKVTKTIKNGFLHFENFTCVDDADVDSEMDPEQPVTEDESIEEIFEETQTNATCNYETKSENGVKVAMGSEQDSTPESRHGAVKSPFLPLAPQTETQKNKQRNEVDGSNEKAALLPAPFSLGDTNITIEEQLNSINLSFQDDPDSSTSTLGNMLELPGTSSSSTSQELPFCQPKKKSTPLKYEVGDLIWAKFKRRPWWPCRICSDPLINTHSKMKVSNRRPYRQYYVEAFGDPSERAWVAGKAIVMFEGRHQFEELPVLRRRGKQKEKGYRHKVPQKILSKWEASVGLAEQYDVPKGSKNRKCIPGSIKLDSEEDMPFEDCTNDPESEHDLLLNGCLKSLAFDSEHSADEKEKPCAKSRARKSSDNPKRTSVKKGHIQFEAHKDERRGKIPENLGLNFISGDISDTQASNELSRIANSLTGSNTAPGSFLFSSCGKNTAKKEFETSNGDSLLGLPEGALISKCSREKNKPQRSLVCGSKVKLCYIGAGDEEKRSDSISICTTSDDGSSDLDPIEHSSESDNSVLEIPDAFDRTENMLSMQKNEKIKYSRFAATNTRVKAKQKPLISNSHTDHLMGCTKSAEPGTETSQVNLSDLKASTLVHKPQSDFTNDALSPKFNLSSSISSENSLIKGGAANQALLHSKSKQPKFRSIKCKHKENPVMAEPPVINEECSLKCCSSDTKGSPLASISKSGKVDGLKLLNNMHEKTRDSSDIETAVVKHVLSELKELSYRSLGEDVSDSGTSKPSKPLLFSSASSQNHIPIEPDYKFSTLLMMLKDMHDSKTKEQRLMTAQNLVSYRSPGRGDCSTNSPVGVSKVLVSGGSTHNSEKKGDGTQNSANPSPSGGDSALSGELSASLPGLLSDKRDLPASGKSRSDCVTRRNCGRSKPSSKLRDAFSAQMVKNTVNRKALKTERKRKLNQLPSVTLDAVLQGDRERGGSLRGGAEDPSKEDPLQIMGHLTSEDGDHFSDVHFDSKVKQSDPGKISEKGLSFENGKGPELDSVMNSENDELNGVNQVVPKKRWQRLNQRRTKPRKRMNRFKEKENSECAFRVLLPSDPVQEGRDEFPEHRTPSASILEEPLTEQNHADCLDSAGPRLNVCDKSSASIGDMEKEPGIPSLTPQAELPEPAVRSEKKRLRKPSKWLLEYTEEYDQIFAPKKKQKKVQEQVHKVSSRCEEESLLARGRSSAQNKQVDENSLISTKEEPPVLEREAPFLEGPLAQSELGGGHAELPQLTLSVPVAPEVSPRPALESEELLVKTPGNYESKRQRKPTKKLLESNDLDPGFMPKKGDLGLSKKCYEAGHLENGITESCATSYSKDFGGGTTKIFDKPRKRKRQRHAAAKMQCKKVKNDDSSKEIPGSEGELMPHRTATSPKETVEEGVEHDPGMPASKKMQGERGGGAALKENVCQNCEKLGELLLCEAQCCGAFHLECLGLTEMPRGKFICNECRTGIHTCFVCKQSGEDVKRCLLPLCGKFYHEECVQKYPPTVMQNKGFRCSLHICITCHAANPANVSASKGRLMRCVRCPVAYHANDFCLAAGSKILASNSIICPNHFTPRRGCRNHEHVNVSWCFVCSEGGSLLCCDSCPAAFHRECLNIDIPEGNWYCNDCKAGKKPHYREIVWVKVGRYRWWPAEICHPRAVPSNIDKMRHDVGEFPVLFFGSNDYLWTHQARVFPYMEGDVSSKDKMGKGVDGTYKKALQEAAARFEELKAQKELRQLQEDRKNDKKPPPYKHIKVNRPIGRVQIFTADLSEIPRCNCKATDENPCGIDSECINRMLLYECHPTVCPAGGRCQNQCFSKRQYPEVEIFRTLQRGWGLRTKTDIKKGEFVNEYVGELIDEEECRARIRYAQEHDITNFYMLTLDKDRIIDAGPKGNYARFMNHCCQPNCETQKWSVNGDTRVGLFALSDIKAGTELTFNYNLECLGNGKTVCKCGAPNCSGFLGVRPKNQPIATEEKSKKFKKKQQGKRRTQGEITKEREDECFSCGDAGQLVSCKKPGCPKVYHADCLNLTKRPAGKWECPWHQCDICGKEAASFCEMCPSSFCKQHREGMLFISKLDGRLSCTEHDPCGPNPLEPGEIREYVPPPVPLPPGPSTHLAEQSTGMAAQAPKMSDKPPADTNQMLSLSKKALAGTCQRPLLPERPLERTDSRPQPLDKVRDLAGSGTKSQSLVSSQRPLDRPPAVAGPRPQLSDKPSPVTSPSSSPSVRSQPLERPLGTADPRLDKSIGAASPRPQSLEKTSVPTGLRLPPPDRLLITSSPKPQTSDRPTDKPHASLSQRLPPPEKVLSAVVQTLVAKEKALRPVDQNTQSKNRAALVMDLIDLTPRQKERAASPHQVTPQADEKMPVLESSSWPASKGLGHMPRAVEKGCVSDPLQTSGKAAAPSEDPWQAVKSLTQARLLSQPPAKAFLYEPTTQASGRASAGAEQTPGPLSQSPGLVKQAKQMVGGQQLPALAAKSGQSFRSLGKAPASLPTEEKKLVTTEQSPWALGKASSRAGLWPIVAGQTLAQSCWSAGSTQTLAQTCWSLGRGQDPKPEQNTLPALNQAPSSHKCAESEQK
UniProt Q01968: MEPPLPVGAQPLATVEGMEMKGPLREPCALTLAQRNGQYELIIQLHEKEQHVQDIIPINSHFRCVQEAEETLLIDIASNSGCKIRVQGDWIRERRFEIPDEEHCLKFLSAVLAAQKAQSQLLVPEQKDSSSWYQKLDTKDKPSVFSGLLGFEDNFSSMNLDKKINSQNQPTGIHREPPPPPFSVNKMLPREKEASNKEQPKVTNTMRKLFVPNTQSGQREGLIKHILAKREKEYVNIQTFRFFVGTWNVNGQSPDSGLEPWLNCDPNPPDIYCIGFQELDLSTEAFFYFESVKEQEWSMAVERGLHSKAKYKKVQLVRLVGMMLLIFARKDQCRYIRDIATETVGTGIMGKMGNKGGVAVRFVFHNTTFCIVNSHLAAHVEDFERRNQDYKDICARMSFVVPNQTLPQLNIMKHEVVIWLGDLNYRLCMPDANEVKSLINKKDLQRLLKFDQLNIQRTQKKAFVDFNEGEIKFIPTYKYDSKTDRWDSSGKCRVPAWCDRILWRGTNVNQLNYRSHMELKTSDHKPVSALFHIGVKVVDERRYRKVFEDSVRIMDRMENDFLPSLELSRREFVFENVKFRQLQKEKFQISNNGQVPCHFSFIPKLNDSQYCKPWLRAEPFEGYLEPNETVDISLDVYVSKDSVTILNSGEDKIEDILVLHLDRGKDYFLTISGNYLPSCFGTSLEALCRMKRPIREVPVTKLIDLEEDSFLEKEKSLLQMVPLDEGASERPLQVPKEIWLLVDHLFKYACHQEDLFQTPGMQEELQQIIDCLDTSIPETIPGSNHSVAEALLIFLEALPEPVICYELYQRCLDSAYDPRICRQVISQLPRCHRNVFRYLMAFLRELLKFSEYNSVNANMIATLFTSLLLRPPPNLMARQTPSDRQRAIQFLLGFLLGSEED
UniProt Q9H4B0: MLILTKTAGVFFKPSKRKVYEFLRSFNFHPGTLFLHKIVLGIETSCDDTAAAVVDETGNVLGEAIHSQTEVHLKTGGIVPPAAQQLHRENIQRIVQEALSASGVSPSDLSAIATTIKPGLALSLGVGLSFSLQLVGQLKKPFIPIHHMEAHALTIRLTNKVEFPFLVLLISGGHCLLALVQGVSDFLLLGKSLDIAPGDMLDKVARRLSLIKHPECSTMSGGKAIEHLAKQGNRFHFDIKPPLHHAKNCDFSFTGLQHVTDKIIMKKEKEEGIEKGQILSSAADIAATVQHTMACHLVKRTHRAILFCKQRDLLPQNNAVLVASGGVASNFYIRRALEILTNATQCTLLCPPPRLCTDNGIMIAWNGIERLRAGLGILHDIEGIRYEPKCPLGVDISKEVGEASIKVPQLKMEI

The other results are listed elsewhere or left out. The data scatter; read single values as rough.

Compound in the first test: ClCC(=O)N[C@@H]1CCCc2ccccc12
Description: log2 mean competition ratio of IA-DTB cysteine labelling (DMSO/compound) (log2 ratio); higher = stronger cysteine engagement by compound. To be noted: 50 µM; treatment time: 4 h; cell line lysate: HEK293T. How it is done:
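IA-DTB competitive cysteine chemoproteomics in HEK293T RIPA lysate. Lysates were treated with compound 29 or 30 at 50 or 200 µM for 4 h, then IA-DTB (500 µM, 1 h), trypsin-digested, NeutrAvidin-enriched and analysed by diaPASEF. Competition ratio = intensity DMSO / intensity compound (n=4 treated, n=64 DMSO); binding: mean log2 CR ≥ 1 and p ≤ 0.05 plus QC filters. Target is the cysteine site.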
Turning to NRDC C1027 (UniProt O43847), the “log2 mean competition ratio” value was determined as 0.0909.

As to NUB1 C317, the “log2 mean competition ratio” value is 0.148.

NUMBL C147 (UniProt Q9Y6R0): the “log2 mean competition ratio” value was -0.0836.

For NSUN4 C258 (UniProt Q96CB9), the “log2 mean competition ratio” value was -0.173.

On to NUP205 C1028 (UniProt Q92621), for which the “log2 mean competition ratio” value was determined as 0.182.

For the target NT5C3B C114 (UniProt Q969T7), the “log2 mean competition ratio” value was -0.0995.

As to NUP160 C65 (UniProt Q12769), the “log2 mean competition ratio” value is -0.011.

As to NSD1 C615 (UniProt Q96L73), the “log2 mean competition ratio” value is -0.139.

As to NXF1 C143 (UniProt Q9UBU9), the “log2 mean competition ratio” value was determined as 0.819.

Consider NUMA1 C1673 (UniProt Q14980), for which the “log2 mean competition ratio” value was -0.173.

Turning to NUF2 C111 (UniProt Q9BZD4), the “log2 mean competition ratio” value came out at 0.086.

Turning to NUMBL C161 (UniProt Q9Y6R0), the “log2 mean competition ratio” value is 0.554.

For OBI1 C338 (UniProt Q5W0B1), the “log2 mean competition ratio” value is -0.156.

As to OCRL C428 (UniProt Q01968), the “log2 mean competition ratio” value was -0.0336.

For ORC4 C421 (UniProt O43929), the “log2 mean competition ratio” value amounted to 0.216.

Turning to OGA C631 (UniProt O60502), the “log2 mean competition ratio” value turned out to be 0.196.

NUP153 C1065 (UniProt P49790): the “log2 mean competition ratio” value came to 0.0196.

In the case of OSGEPL1 C216 (UniProt Q9H4B0), the “log2 mean competition ratio” value is -0.04.

For NR2F2 C314 (UniProt P24468), the “log2 mean competition ratio” value came to 0.0478.

Take ODAD2 C125: the “log2 mean competition ratio” value is -0.251.

Staying with this test, now noted: 200 µM; treatment time: 4 h; cell line lysate: HEK293T.
NRDC C1027 (UniProt O43847): the “log2 mean competition ratio” value was -0.302.

Regarding NUB1 C317, the “log2 mean competition ratio” value came to 0.173.

Regarding NUMBL C147 (UniProt Q9Y6R0), the “log2 mean competition ratio” value stood at 0.119.

As for NSUN4 C258 (UniProt Q96CB9), the “log2 mean competition ratio” value is -0.0732.

For the target NUP205 C1028 (UniProt Q92621), the “log2 mean competition ratio” value stood at 0.324.

Regarding NT5C3B C114 (UniProt Q969T7), the “log2 mean competition ratio” value was -0.2.

With NUP160 C65 (UniProt Q12769), the “log2 mean competition ratio” value is -0.47.

NSD1 C615 (UniProt Q96L73): the “log2 mean competition ratio” value was -0.123.

For NXF1 C143 (UniProt Q9UBU9), the “log2 mean competition ratio” value was found to be 0.546.

Take NUMA1 C1673 (UniProt Q14980): the “log2 mean competition ratio” value was -0.126.

Take NUF2 C111 (UniProt Q9BZD4): the “log2 mean competition ratio” value is 0.744.

With NUMBL C161 (UniProt Q9Y6R0), the “log2 mean competition ratio” value was 0.402.

With OBI1 C338 (UniProt Q5W0B1), the “log2 mean competition ratio” value was determined as 0.291.

For OCRL C428 (UniProt Q01968), the “log2 mean competition ratio” value is -0.19.

Consider ORC4 C421 (UniProt O43929), for which the “log2 mean competition ratio” value worked out at 0.169.

As for OGA C631 (UniProt O60502), the “log2 mean competition ratio” value was -0.00705.

In the case of NUP153 C1065 (UniProt P49790), the “log2 mean competition ratio” value is -0.235.

Turning to OSGEPL1 C216 (UniProt Q9H4B0), the “log2 mean competition ratio” value was determined as 0.783.

On to NR2F2 C314 (UniProt P24468), for which the “log2 mean competition ratio” value was determined as 0.13.

For the target ODAD2 C125, the “log2 mean competition ratio” value turned out to be 0.115.
